Measured values reported in PubChem BioAssay AID2685 (National Center for Advancing Translational Sciences (NCATS), 2010).
Some of the results follow. The main result of the screen is listed elsewhere. These columns were measured beside it and carry no call. The list favours compounds with an active or inconclusive main result. The note in brackets gives the kind of curve behind each potency; many fits are weak.

Assay: qHTS Assay for Lipid Storage Modulators in Drosophila S3 Cells;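 as to cell number change: cells counted by Cell Tracker Red CMTPX staining in the red channel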
Conditions: BODIPY lipid droplet fluorescence, 18-24 h; for cell number change: measured here: cell count max response, cells fed with added oleic acid
How it was run: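 Drosophila S3 cells got compounds at several concentrations plus oleic acid (400 uM solution). Laser-scanning cytometry with 488 nm excitation read lipid droplets at 500-530 nm and cells at 575-640 nm. Percent activity was relative to 20 uM Triacsin C.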

[1] = measured here: cell number channel AC50, cells fed with added oleic acid
[2] = measured here: lipid fluorescence (Fed channel) AC50, cells fed with added oleic acid

Which cell number change does the source give for `CCCCN1C(=O)c2ccc(C(=O)Nc3ccc(S(=O)(=O)N(C)C)cc3)cc2C1=O` here?
The cell number change was -83.3%.

And the AC50 [1]?
The AC50 was 18.4 µM [falling, single point].

And the AC50 [2]?
The AC50 was 4.11 µM [falling, partial curve].

What does the source list for `COCCN(Cc1cc2cc(C)ccc2n2nnnc12)C(=S)Nc1cccc(C)c1`?
cell number change: 33.4%; AC50 [2]: 1.84 µM [rising, partial curve, poor fit]

With `O=S(=O)(c1ccc2ccccc2c1)N1CCN(C(=S)Nc2ccc(F)cc2)CC1` as the molecule, how does the cell number change read?
The cell number change was -13.3%.

What does the source list for `O=C(c1ccccc1)[C@H]1CC=CC[C@H]1C(=O)O`?
cell number change: -61.8%; AC50 [1]: 20.6 µM [falling, single point]; AC50 [2]: 29.1 µM [falling, single point]

What does the source list for `Brc1ccc(-c2noc(COc3ccc4ccccc4c3)n2)o1`?
cell number change: 50.6%; AC50 [1]: 1.84 µM [rising, full curve]; AC50 [2]: 2.06 µM [rising, partial curve]

What does the source list for `O=C(O)c1ccc(Nc2nc(-c3ccccc3)c3ccccc3n2)cc1`?
cell number change: 11.3%; AC50 [2]: 0.58 µM [falling, single point]

What does the source list for `Cc1cc(NCCO)c2cc(O)ccc2n1`?
cell number change: -13%; AC50 [2]: 0.146 µM [falling, full curve, poor fit]

Which results are given for `CCNc1nc(NCC)n2c(SCC(=O)N(CC)C3CCCCC3)nnc2n1`?
cell number change: 22.4%; AC50 [1]: 1.84 µM [rising, partial curve, poor fit]; AC50 [2]: 1.3 µM [rising, full curve, poor fit]

Which results are given for `COc1ccc(-c2nc3c(c4nnc(SC(C)C(=O)Nc5ccc(C)cc5)n24)COC(C)(C)C3)cc1` (stereo not drawn)?
cell number change: 2.2%; AC50 [2]: 0.146 µM [rising, full curve, poor fit]

With `Cn1ccsc1=NC(=O)c1ccc(S(C)(=O)=O)c([N+](=O)[O-])c1` as the molecule, how does the cell number change read?
The cell number change was 5.95%.

For `Cn1ncc2c(N3CCN(c4ccccc4F)CC3)ncnc21`, which AC50 [2] is on record?
The AC50 was 4.61 µM [rising, partial curve].

Which results are given for `C(#CCN1CCC(Cc2ccccc2)CC1)COCCOCc1ccccc1`?
cell number change: 64.8%; AC50 [1]: 20.6 µM [rising, single point]; AC50 [2]: 29.1 µM [rising, single point]

With `CSc1ncc(C(=O)Nc2cccc(Cl)c2C)c(C)n1` as the molecule, how does the AC50 [2] read?
Its AC50 is 8.2 µM [rising, partial curve, poor fit].

Which cell number change does the source give for `O=C(Nc1c(Cl)cc(Cl)cc1-c1nc2ccccc2s1)c1ccc(Br)o1` here?
Its cell number change is 3.17%.

What about the AC50 [2] of the same molecule?
The AC50 was 0.651 µM [rising, single point].

Which cell number change does the source give for `CCN=C1S/C(=C\c2cc(Br)ccc2OCC(=O)OCC)C(=O)N1CC` here?
The cell number change was -50%.

What about the AC50 [1] of the same molecule?
Its AC50 is 32.6 µM [falling, single point].

For `CCOc1ccc(CN(C)C(=O)CNC(=O)C2CCCCC2)cc1`, which cell number change is on record?
The cell number change was -14.1%.

And the AC50 [2]?
Its AC50 is 5.17 µM [falling, single point].

Which cell number change does the source give for `COC(=O)c1ccc(NC(=O)CSc2nnc(C3CC3)n2C)cc1` here?
Its cell number change is 20%.

What about the AC50 [2] of the same molecule?
Its AC50 is 1.16 µM [rising, full curve].

With `Cc1ccc2ncc(NC(=O)c3ccc(F)cc3)c(=O)n2c1` as the molecule, how does the cell number change read?
Its cell number change is 14.2%.

With `O=C(COC(=O)CNC(=O)c1ccccc1Cl)Nc1ccccc1Cl` as the molecule, how does the cell number change read?
Its cell number change is -41.3%.

What about the AC50 [1] of the same molecule?
The AC50 was 3.26 µM [falling, partial curve, poor fit].

Which results are given for `COc1ccc(OCc2nnc(SCC(=O)NNC(=O)c3ccc(C)cc3)n2C)cc1`?
cell number change: 3.58%; AC50 [2]: 0.731 µM [rising, partial curve, poor fit]

For `Cc1nc(S(=O)(=O)Cc2ccccc2Cl)nc2c1CCC2`, which cell number change is on record?
The cell number change was 27.6%.

With `O=C1Nc2ccccc2S/C1=C/c1cccs1` as the molecule, how does the cell number change read?
Its cell number change is 33.4%.

What about the AC50 [1] of the same molecule?
The AC50 was 9.2 µM [rising, partial curve].

With `Nc1c(N2CCOCC2)cc(Cl)c2nonc12` as the molecule, how does the cell number change read?
The cell number change was 2.47%.

What about the AC50 [2] of the same molecule?
The AC50 was 29.1 µM [rising, single point].

Which cell number change does the source give for `CCOC(=O)c1ccc(-n2c(CCC(=O)O)ccc2-c2ccccc2)cc1` here?
Its cell number change is 23.4%.

What about the AC50 [1] of the same molecule?
Its AC50 is 0.103 µM [rising, full curve, poor fit].

And the AC50 [2]?
Its AC50 is 6.51 µM [rising, single point].

What does the source list for `Cc1nn(-c2ccc(NC(=O)c3ccncc3)cc2)c(C)c1Cl`?
cell number change: -44.5%; AC50 [1]: 8.2 µM [falling, partial curve, poor fit]

With `CCCCOC(=O)Cn1c2ccc(OC)cc2c2nc3ccccc3nc21` as the molecule, how does the cell number change read?
The cell number change was 12.1%.

What about the AC50 [2] of the same molecule?
Its AC50 is 6.51 µM [rising, single point].

With `CC(=O)Nc1ccc(S(=O)(=O)N(Cc2cccnc2)Cc2cc3ccc(C)cc3[nH]c2=O)cc1` as the molecule, how does the cell number change read?
Its cell number change is -30.1%.

What about the AC50 [1] of the same molecule?
The AC50 was 0.082 µM [falling, full curve, poor fit].

What about the AC50 [2] of the same molecule?
Its AC50 is 0.58 µM [rising, single point].

Which cell number change does the source give for `CC(NC(=O)COC(=O)Cc1ccsc1)C1CC2CCC1C2` (stereo not drawn) here?
Its cell number change is -38%.

What about the AC50 [1] of the same molecule?
The AC50 was 16.4 µM [falling, partial curve, poor fit].

And the AC50 [2]?
Its AC50 is 13 µM [falling, partial curve].
